Experimental findings from the supplement of paper PMC10727501 are described below.

This is one part of the list. This data set is noisy: repeats of one test often differ as much as different tests do.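 Free-swimming zebrafish larvae were scored for O-bend response probability to dark flashes (naive: first five; training: remaining flashes of four 60-flash blocks; test: later 60-flash block) and for turning toward alternating leftward/rightward LED motion (OMR). Six treated larvae were compared with sixty 0.1% DMSO controls; |SSMD|≥2 defined a hit.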

What all share (details): 10 µM; pre-incubation: 30-90 min
Test [1] has as its system Danio rerio larvae (5 dpf, TLF). The test can be described thus: OMR-Perf (SSMD vs DMSO vehicle); higher = higher than vehicle (e.g. higher dark-flash O-bend response probability, or better optomotor performance).
For test [2] the test system is unchanged. In words: Prob-Test (SSMD vs DMSO vehicle); higher = higher than vehicle (e.g. higher dark-flash O-bend response probability, or better optomotor performance).
Test [3] has the same test system. The test can be described thus: Prob-Naive (SSMD vs DMSO vehicle); higher = higher than vehicle (e.g. higher dark-flash O-bend response probability, or better optomotor performance).
For test [4] the test system is unchanged. In words: Prob-Train (SSMD vs DMSO vehicle); higher = higher than vehicle (e.g. higher dark-flash O-bend response probability, or better optomotor performance).

Regarding `CCOc1ccccc1-n1c(C(C)N2CCN(C(=O)COc3ccc(Cl)cc3)CC2)nc2ccccc2c1=O` (stereo unspecified) [Erastin], in test [1], the OMR-Perf is -0.403. Further, in test [2], the Prob-Test was -0.684. Besides, in test [3], the Prob-Naive was -0.293. The compound also returned a Prob-Train in test [4] of -0.537.
The compound `CN[C@@H]1C[C@@H](N)[C@H](O)[C@@H](O[C@@H]2O[C@H](CO)[C@H](O)[C@@H]3OC4(O[C@@H]23)O[C@H]([C@@H](N)CO)[C@H](O)[C@H](O)[C@@H]4O)[C@@H]1O` (stereo partly specified) [Hygromycin B] had an OMR-Perf in test [1] of -0.577. For the same compound, the Prob-Test in test [2] is -0.155. The compound further yielded a Prob-Naive in test [3] of 0.131. The Prob-Train in test [4] was -0.0925.
For `C/C=C(\C)C(=O)N[C@@H](c1ccccc1)[C@@H](O)C(=O)O[C@H]1C[C@@]2(O)[C@@H](OC(=O)c3ccccc3)[C@@H]3[C@]4(OC(C)=O)CO[C@@H]4C[C@@H](O)[C@@]3(C)C(=O)[C@@H](OC(C)=O)C(=C1C)C2(C)C` [Cephalomannine], in that order: -0.315, 0.227, 0.146 and 0.308.
For `NC[C@H](CC(=O)O)c1ccc(Cl)cc1` [(R)-baclofen], in that order: 0.545, -0.105, -0.376 and -0.00727.
For `Cc1cc2c(C(C)C)c(O)c(O)c(C=O)c2c(O)c1-c1c(C)cc2c(C(C)C)c(O)c(O)c(C=O)c2c1O` [Gossypol], in that order: 0.251, -0.745, 0.773 and 0.161.
As for `CCN(CC)C(=O)c1ccc(C2=CC3(CCNCC3)Oc3cccc(O)c32)cc1.Cl`, the OMR-Perf in test [1] was 0.114. Also, the Prob-Test in test [2] was -0.0907. The Prob-Naive in test [3] is 0.357. The compound further displayed a Prob-Train in test [4] of 0.273.
In the case of `Cl.NCCc1c[nH]c2ccc(O)cc12` [Serotonin HCl], in test [1], the OMR-Perf is -0.0919. For the same compound, the Prob-Test in test [2] is -0.547. The compound further returned a Prob-Naive in test [3] of 0.207. Further, in test [4], the Prob-Train was determined as 0.144.
For `C[C@H]1O[C@@H](O[C@@H]2C[C@H](O)[C@]3(CO)[C@H]4[C@H](O)C[C@]5(C)[C@H](C6=CC(=O)OC6)CC[C@]5(O)[C@@H]4CC[C@]3(O)C2)[C@@H](O)[C@H](O)[C@H]1O.O.O.O.O.O.O.O.O` [Ouabain], in that order: -0.741, -0.388, 0.0124 and -0.348.
Regarding `CN1CCN(c2nc3ccccc3nc2Cl)CC1`, in test [1], the OMR-Perf was -0.0683. Besides, the Prob-Test in test [2] turned out to be 0.416. In test [3], this compound had a Prob-Naive of 0.213. In addition, the Prob-Train in test [4] was determined as 0.169.
`C=CC[C@@]1(O)CC[C@H]2[C@@H]3CCC4=CC(=O)CCC4=C3C=C[C@@]21C` [Altrenogest] displayed an OMR-Perf in test [1] of -0.512. This compound also returned a Prob-Test in test [2] of -1.34. In addition, the Prob-Naive in test [3] was -1.71. Besides, the Prob-Train in test [4] was -2.06.
In the same order, the values of `C/C(=C\c1csc(C)n1)[C@H]1C[C@@H]2O[C@@H]2CCC[C@H](C)[C@H](O)[C@@H](C)C(=O)C(C)(C)[C@H](O)CC(=O)O1` [Epothilone A] are 0.0774, 0.034, 0.214 and 0.346.
For `O=[N+]([O-])c1ncc[nH]1` [Azomycin], in that order: -0.55, -0.436, 0.285 and -0.554.
In the same order, the values of `NCCC(O)(P(=O)([O-])O)P(=O)([O-])O.[Na+].[Na+]` [Pamidronate Disodium] are -0.455, -0.0636, 0.511 and 0.248.
For `CN1CCc2cccc3c2C1Cc1ccc(O)c(O)c1-3.CN1CCc2cccc3c2C1Cc1ccc(O)cc1-3` (stereo not drawn) [R-(-)-Apomorphine HCl Hemihydrate], the OMR-Perf in test [1] was -0.533. Moreover, the Prob-Test in test [2] is -0.885. The compound also came in with a Prob-Naive in test [3] of -0.621. In test [4], this compound showed a Prob-Train of -1.89.
In turn, `CNCC(O)c1ccc(O)cc1` (stereo unspecified) [Synephrine] displayed an OMR-Perf in test [1] of 0.313. The compound also displayed a Prob-Test in test [2] of -0.242. For the same compound, in test [3], the Prob-Naive was -0.038. Also, the Prob-Train in test [4] was 0.0264.
In the same order, the values of `CN1[C@@H]2CC[C@H]1C[C@@H](OC(=O)C(CO)c1ccccc1)C2.CN1[C@@H]2CC[C@H]1C[C@@H](OC(=O)C(CO)c1ccccc1)C2.O.O=S(=O)(O)O` (stereo partly specified) [Atropine] are 0.147, -0.447, 0.028 and -0.5.
For `Cc1c(N)nc([C@H](CC(N)=O)NC[C@@H](N)C(N)=O)nc1C(=O)N[C@H](C(=O)N[C@@H](C)[C@H](O)[C@@H](C)C(=O)N[C@@H](C(=O)NCCc1nc(-c2nc(C(=O)NCCC[S+](C)C)cs2)cs1)[C@@H](C)O)C(O[C@H]1O[C@H](CO)[C@H](O)[C@@H](O)[C@H]1O[C@H]1O[C@H](CO)[C@@H](O)[C@H](OC(N)=O)[C@@H]1O)c1c[nH]cn1.O=S(=O)([O-])O` (stereo partly specified) [Bleomycin Sulfate], in that order: 0.26, 0.32, -0.0954 and -0.0334.
`O=C1C=CC[C@@H]2[C@@H]3CCCN4CCC[C@@H](CN12)[C@@H]34` [Sophocarpine]: the OMR-Perf in test [1] is -0.119. Moreover, the Prob-Test in test [2] is -0.402. Besides, the Prob-Naive in test [3] is 0.146. For the same compound, the Prob-Train in test [4] was -0.244.
In the same order, the values of `C[C@@H]1[C@H](O)[C@@H](C)/C=C/C=C/CC/C=C/C=C/C=C/C=C/[C@H](O[C@H]2O[C@@H](C)[C@H](O)[C@@H](N)[C@H]2O)C[C@@H]2O[C@@](O)(C[C@@H](O)[C@@H](O)CC[C@@H](O)C[C@@H](O)C[C@@H](O)CC(=O)O[C@H]1C)C[C@H](O)[C@H]2C(=O)O` [Nystatin (Fungicidin)] are -1.18, 0.602, -0.171 and 0.709.
